Assay results from paper PMC3422239.
No constants are given. Whether binding was seen depends on the method and setting. A result given as binding can be weak or reduced; the word gives no strength. Where a sequence is shown, tags or fusion partners need not be part of it.

Assays:
Experiment in all cases: far-Western, overlay or dot blot; GFP-tagged IRS-2 pulled down with GFP-Trap from HEK293 or Flp-In HEK293 lysates, SDS-PAGE, nitrocellulose; membrane incubated overnight at 4°C with 14-3-3ζ-HRP, ECL; cells serum starved, IGF-1, or PI-103, wortmannin or Akti-1/2 before IGF-1; both purified
[1] = biological target: T1, GFP-IRS2-301-600 (mouse) (UniProt P81122)
T1 sequence: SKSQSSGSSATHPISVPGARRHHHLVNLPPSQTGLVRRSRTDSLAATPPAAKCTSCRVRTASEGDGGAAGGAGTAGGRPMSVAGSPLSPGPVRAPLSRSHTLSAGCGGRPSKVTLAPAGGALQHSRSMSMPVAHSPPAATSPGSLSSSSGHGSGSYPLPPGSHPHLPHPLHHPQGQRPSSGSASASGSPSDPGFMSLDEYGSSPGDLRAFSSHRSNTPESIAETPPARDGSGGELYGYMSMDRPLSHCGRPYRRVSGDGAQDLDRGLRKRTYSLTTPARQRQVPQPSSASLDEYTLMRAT

[2] = biological target: T2, GFP-IRS2-S303A (mouse) (UniProt P81122)
T2 sequence: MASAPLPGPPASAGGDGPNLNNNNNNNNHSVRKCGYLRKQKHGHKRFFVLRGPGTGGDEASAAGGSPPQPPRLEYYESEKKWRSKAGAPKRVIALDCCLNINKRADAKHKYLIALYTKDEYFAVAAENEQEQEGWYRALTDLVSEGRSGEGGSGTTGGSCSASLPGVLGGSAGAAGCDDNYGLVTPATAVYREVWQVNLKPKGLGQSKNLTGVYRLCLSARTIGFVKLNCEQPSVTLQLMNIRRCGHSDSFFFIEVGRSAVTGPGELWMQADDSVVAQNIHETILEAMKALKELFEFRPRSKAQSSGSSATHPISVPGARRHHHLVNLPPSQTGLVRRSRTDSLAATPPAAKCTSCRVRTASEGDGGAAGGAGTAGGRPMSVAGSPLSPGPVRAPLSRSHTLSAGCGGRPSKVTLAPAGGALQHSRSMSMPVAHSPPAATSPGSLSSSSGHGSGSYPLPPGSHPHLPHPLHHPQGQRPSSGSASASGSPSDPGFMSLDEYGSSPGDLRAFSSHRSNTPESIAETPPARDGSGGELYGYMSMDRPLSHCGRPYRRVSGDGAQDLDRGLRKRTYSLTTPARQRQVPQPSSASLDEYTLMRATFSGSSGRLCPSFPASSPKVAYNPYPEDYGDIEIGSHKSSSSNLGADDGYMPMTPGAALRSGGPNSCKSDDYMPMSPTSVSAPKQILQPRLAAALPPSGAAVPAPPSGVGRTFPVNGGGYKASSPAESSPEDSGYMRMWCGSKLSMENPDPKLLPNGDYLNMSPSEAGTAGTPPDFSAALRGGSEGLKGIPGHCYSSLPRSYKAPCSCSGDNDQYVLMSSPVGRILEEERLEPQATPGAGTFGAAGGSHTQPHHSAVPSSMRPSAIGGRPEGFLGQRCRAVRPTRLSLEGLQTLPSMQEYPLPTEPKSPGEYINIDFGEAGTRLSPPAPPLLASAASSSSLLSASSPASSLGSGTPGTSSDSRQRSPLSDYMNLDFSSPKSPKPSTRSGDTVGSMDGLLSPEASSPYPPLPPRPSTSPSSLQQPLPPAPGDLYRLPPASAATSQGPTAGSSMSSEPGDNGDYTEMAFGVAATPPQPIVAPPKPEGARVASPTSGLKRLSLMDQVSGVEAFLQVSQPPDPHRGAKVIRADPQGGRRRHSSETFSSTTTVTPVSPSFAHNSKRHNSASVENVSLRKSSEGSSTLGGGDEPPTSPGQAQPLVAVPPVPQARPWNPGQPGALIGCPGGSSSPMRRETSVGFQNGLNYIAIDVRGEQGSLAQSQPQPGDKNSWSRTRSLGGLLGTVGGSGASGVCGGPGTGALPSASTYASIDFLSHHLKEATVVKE

[3] = biological target: T3, GFP-IRS2-1-600 (mouse) (UniProt P81122)
T3 sequence: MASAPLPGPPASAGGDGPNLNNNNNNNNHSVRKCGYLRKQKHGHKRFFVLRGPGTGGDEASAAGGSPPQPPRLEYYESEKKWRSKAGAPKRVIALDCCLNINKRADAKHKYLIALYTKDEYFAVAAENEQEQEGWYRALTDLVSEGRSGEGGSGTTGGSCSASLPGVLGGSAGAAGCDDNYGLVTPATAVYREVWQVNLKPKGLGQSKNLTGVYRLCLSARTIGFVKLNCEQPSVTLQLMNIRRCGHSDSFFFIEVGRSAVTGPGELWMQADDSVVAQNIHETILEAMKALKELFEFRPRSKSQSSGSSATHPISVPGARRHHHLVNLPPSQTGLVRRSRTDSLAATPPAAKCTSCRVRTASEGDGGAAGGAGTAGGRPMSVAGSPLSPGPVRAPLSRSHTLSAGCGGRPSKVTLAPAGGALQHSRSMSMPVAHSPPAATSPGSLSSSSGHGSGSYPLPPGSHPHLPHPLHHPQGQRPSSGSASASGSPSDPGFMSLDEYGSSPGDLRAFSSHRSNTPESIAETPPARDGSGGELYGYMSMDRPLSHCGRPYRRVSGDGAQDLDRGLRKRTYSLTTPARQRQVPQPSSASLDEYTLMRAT

Measured: binding

Recombinant human 14-3-3ζ-HRP
binds: [1] | [2] | [3]
